# PubChem BioAssay AID248 (DTP/NCI, 2004)
# The list shows only some results of the screen, not a fair sample: it is rich in T/C values a quarter to a half above the control, in often repeated tests (any T/C) and in doses without a T/C. Further doses and runs are listed elsewhere. T/C is the treated group as % of the vehicle group. Some doses have a count of surviving animals in place of a T/C: the source holds a T/C of zero for them, seemingly a mark for toxic or unscored doses. Some doses without a T/C left all or most animals alive at the check, yet need not have been tolerated: survival well below the control is almost never listed, so the zero probably covers shortened survival too. Counts of survivors are from the toxicity check (mostly the fifth day) where no day follows; animals may have died later. Schedules are NCI's codes, read here as Q, the interval in days (D) or hours (H), X, the number of doses. Some schedule codes hold Z or #, which are not explained here. For survival time, this PubChem deposit counts one and a half times the control or more as active, and values a quarter to a half above the control carry no call in these data; other NCI protocols may use other cut-offs. Some entries were tested several times; the results are listed from low to high. Some T/C values are followed by the survivors on the day toxicity was checked, most often the fifth; without a count, all were alive then.
# Test system: L1210 leukemia ip in BDF1 mice, survival T/C
# Test: NCI In Vivo Anticancer Drug Screen. Data for tumor model L1210 Leukemia (intraperitoneal) in B6D2F1 (BDF1) mice
# Conditions: T/C endpoint: mean survival time, higher T/C = longer survival
# [1] = dose: 200.0 mg/kg/injection, schedule: Q01DX009 (ip), vehicle: Klucel (hydroxypropylcellulose) (HPC)
# [2] = dose: 200.0 mg/kg/injection, schedule: Q04DX002 (ip), vehicle: Klucel (hydroxypropylcellulose) (HPC)
# [3] = dose: 400.0 mg/kg/injection, schedule: Q01DX009 (ip), vehicle: Klucel (hydroxypropylcellulose) (HPC)
# [4] = dose: 100.0 mg/kg/injection, schedule: Q04DX003 (ip), vehicle: Klucel (hydroxypropylcellulose) (HPC)
# [5] = dose: 200.0 mg/kg/injection, schedule: Q04DX003 (ip), vehicle: Klucel (hydroxypropylcellulose) (HPC)
# [6] = dose: 400.0 mg/kg/injection, schedule: Q04DX003 (ip), vehicle: Klucel (hydroxypropylcellulose) (HPC)
# [7] = dose: 400.0 mg/kg/injection, schedule: Q04DX003 (ip), vehicle: saline
# [8] = dose: 200.0 mg/kg/injection, schedule: Q01DX001 (ip), vehicle: saline
# [9] = dose: 400.0 mg/kg/injection, schedule: Q01DX001 (ip), vehicle: saline
# [10] = dose: 400.0 mg/kg/injection, schedule: Q04DX002 (ip), vehicle: saline with Tween-80
# [11] = dose: 200.0 mg/kg/injection, schedule: Q04DX003 (ip), vehicle: saline
# [12] = dose: 100.0 mg/kg/injection, schedule: Q01DX009 (ip), vehicle: Klucel (hydroxypropylcellulose) (HPC)
compound,measurement,setting,value
ClC1(Cl)C2CC3C4C=CC(C4)C3C21 (centres undefined),survivor count,"dose: 400.0 mg/kg/injection, schedule: Q01DX001 (ip), vehicle: Klucel (hydroxypropylcellulose) (HPC)",1 of 6
CN(C)CCC(c1ccccc1)c1nc(N)nc(C(CCN(C)C)c2ccccc2)n1 (centres undefined),survivor count,[1],0 of 6
same,survivor count,[2],0 of 3
same,survivor count,[3],0 of 6
CCN(CC)CC(=O)N1Cc2ccccc2Cc2ccccc2C1,survivor count,[4],0 of 3
same,survivor count,[5],0 of 6
same,survivor count,[6],0 of 6
CCCCCCCCCCCCCCCCCC(=O)NCCNC(=O)CCCCCCCCCCCCCCCCC,survivor count,[4],6 of 6
same,survivor count,[5],6 of 6
same,survivor count,"dose: 225.0 mg/kg/injection, schedule: Q01DX009 (ip), vehicle: Klucel (hydroxypropylcellulose) (HPC)",3 of 6
same,survivor count,"dose: 335.0 mg/kg/injection, schedule: Q01DX009 (ip), vehicle: Klucel (hydroxypropylcellulose) (HPC)",3 of 66
same,survivor count,[6],6 of 6
O=C(O)c1cc(Cl)c(Cl)s1,survivor count,[5],0 of 6
same,survivor count,[6],0 of 6
CCOC(=O)N(OC(C)=O)P(=O)(N1CC1(C)C)N1CC1(C)C (centres undefined),survivor count,"dose: 400.0 mg/kg/injection, schedule: Q04DX002 (ip), vehicle: saline",1 of 3
CCOC(=O)NCCN(C)C,survivor count,[7],5 of 6
Cc1c2ccccc2c(CSCC(N)C(=O)O)c2ccc3ccccc3c12 (centres undefined),survivor count,"dose: 200.0 mg/kg/injection, schedule: Q01DX009 (ip), vehicle: saline with Tween-80",6 of 6
CCN(CC)CCSSCCN(CC)CC,survivor count,[8],2 of 4
same,survivor count,[9],0 of 4
CNc1c(Cl)c(Cl)cc(Cl)c1Cl,survivor count,"dose: 400.0 mg/kg/injection, schedule: Q01DX009 (ip), vehicle: saline with Tween-80",6 of 6
O=C(NCC(O)CNC(=O)Nc1ccc(C2=NCCCN2)cc1)Nc1ccc(C2=NCCCN2)cc1,survivor count,"dose: 30.0 mg/kg/injection, schedule: Q01DX Z (ip), vehicle: water",0 of 6
same,T/C,"dose: 40.0 mg/kg/injection, schedule: Q01DX Z (ip), vehicle: carboxymethylcellulose (CMC)",137 % of control [5 of 6 alive]
same,survivor count,"dose: 40.0 mg/kg/injection, schedule: Q01DX Z (ip), vehicle: water",0 of 6
same,survivor count,"dose: 50.0 mg/kg/injection, schedule: Q01DX Z (ip), vehicle: water",0 of 6
same,survivor count,"dose: 80.0 mg/kg/injection, schedule: Q01DX Z (ip), vehicle: carboxymethylcellulose (CMC)",0 of 6
CC(=O)OCC1OC(=O)C(C)N(C)C(=O)CN(C)C(=O)C2C(=O)CC(C)N2C(=O)C(C(C)C)NC(=O)C1NC(=O)c1c2nc3c(C(=O)NC4C(=O)NC(C(C)C)C(=O)N5C(C)CC(OC(C)=O)C5C(=O)N(C)CC(=O)N(C)C(C(C)C)C(=O)OC4C)ccc(C)c3oc-2c(C)c(=O)c1N (centres undefined),T/C,"dose: 0.8 mg/kg/injection, schedule: Q01DX009 (ip), vehicle: saline with Tween-80",126 % of control
CCOC(=O)/C=C(\CC(=O)OCC)Nc1ccc(OC)cc1,survivor count,"dose: 200.0 mg/kg/injection, schedule: Q01DX009 (ip), vehicle: saline",6 of 6
NC(=S)N/N=C/c1ccc(Cl)s1,survivor count,[2],3 of 3
same,survivor count,"dose: 400.0 mg/kg/injection, schedule: Q04DX002 (ip), vehicle: Klucel (hydroxypropylcellulose) (HPC)",3 of 3
Nc1ccc(S(=O)(=O)Nc2ccc(Nc3c4ccccc4nc4ccccc34)cc2)cc1,T/C,"dose: 1.5 mg/kg/injection, schedule: Q01DX009 (ip), vehicle: saline with Tween-80",126 % of control
same,T/C,"dose: 3.0 mg/kg/injection, schedule: Q01DX001 (ip), vehicle: saline with Tween-80",142 % of control
same,T/C,"dose: 3.0 mg/kg/injection, schedule: Q04DX003 (ip), vehicle: saline with Tween-80",139 % of control
same,T/C,"dose: 6.0 mg/kg/injection, schedule: Q01DX001 (ip), vehicle: saline with Tween-80",130 % of control
same,T/C,"dose: 6.0 mg/kg/injection, schedule: Q04DX003 (ip), vehicle: saline with Tween-80",134 % of control
same,T/C,"dose: 12.0 mg/kg/injection, schedule: Q01DX001 (ip), vehicle: saline with Tween-80",136 % of control
same,T/C,"dose: 12.0 mg/kg/injection, schedule: Q01DX009 (ip), vehicle: saline with Tween-80",136 % of control
same,T/C,"dose: 12.0 mg/kg/injection, schedule: Q04DX003 (ip), vehicle: saline with Tween-80",136 % of control
same,T/C,"dose: 24.0 mg/kg/injection, schedule: Q01DX001 (ip), vehicle: saline with Tween-80",132 % of control
same,T/C,"dose: 24.0 mg/kg/injection, schedule: Q04DX003 (ip), vehicle: saline with Tween-80",136 % of control
O=S(=O)(O)n1nc2ccccc2c1-c1ccccc1,survivor count,[10],2 of 3
N=C(N)CCN,survivor count,[9],2 of 4
C#CCN(CCCC)CCCC,survivor count,[10],0 of 3
NC(N)=NCCS(=O)(=O)Nc1ccc(Nc2c3ccccc3nc3cc([N+](=O)[O-])ccc23)cc1,T/C,"dose: 1.5 mg/kg/injection, schedule: Q01DX009 (ip), vehicle: water",134 % of control
same,T/C,"dose: 3.0 mg/kg/injection, schedule: Q01DX009 (ip), vehicle: water",147 % of control
same,T/C,"dose: 6.25 mg/kg/injection, schedule: Q04DX003 (ip), vehicle: water",147 % of control
same,T/C,"dose: 12.5 mg/kg/injection, schedule: Q04DX003 (ip), vehicle: water",140 % of control
Cc1cc(C(=O)O)c(C)o1,survivor count,[3],3 of 6
Oc1ccc(Cl)c2cccnc12,survivor count,"dose: 400.0 mg/kg/injection, schedule: Q01DX001 (ip), vehicle: carboxymethylcellulose (CMC)",2 of 4
C1OC1C1CO1 (centres undefined),survivor count,"dose: 66.0 mg/kg/injection, schedule: Q01DX001 (ip), vehicle: saline",1 of 4
same,survivor count,"dose: 80.0 mg/kg/injection, schedule: Q01DX001 (ip), vehicle: saline",0 of 4
same,survivor count,"dose: 100.0 mg/kg/injection, schedule: Q01DX001 (ip), vehicle: saline",0 of 4
same,survivor count,"dose: 100.0 mg/kg/injection, schedule: Q04DX003 (ip), vehicle: saline",0 of 6
same,survivor count,"dose: 150.0 mg/kg/injection, schedule: Q01DX001 (ip), vehicle: saline",0 of 4
same,survivor count,[11],0 of 6
same,survivor count,[7],0 of 6
C=C(C)Cc1c(C)c(Cl)cc(Cl)c1O,survivor count,[8],3 of 6
same,survivor count,[9],3 of 6
c1ccc2c(c1)Cc1cc3ccccc3nc1-2,survivor count,"dose: 100.0 mg/kg/injection, schedule: Q01DX009 (ip), vehicle: saline with Tween-80",6 of 6
CSc1cc(C)c(OC(=O)Nc2cc(C)ccc2C)c(C)c1,survivor count,"dose: 100.0 mg/kg/injection, schedule: Q01DX009 (ip), vehicle: saline",6 of 6
C#CC(OC(=O)NC)(c1ccccc1)c1ccc(OC)cc1 (centres undefined),T/C,"dose: 17.0 mg/kg/injection, schedule: Q01DX006 (ip), vehicle: Klucel (hydroxypropylcellulose) (HPC)",128 % of control
same,T/C,"dose: 25.0 mg/kg/injection, schedule: Q01DX009 (ip), vehicle: Klucel (hydroxypropylcellulose) (HPC)",130 and 136 % of control
same,survivor count,[12],1 of 6
same,survivor count,[5],2 of 6
same,survivor count,[6],0 of 6
CC(C)(C)OC(=O)CC#N,survivor count,"dose: 75.0 mg/kg/injection, schedule: Q04DX003 (ip), vehicle: saline",6 of 6
same,survivor count,"dose: 150.0 mg/kg/injection, schedule: Q04DX003 (ip), vehicle: saline",6 of 6
same,survivor count,"dose: 300.0 mg/kg/injection, schedule: Q04DX003 (ip), vehicle: saline",6 of 6
same,survivor count,[9],1 of 4
C[S+](C)Cc1ccc(C(=O)Oc2ccc([N+](=O)[O-])cc2)cc1,survivor count,[11],5 of 6
same,survivor count,"dose: 400.0 mg/kg/injection, schedule: Q01DX009 (ip), vehicle: saline",0 of 6
same,survivor count,[7],2 of 6
Cc1ccc(NC(=O)c2ccc([N+](=O)[O-])cc2)cc1Cl,survivor count,[12],6 of 6
same,survivor count,[1],6 of 6
same,survivor count,[3],6 of 6
